Results are given in words; binding and its absence hold for the method and conditions named. Some entries that bind do so weakly or less than the wild type. Tags and fused reporters may be left off the sequences shown.
Target: T1, recombinant B7-H4 protein (extracellular domain, IgC+IgV, fused to 6xHIS Tag) (human) (UniProt Q7Z7D3)
T1 sequence (chain, biotinylated in the capture ELISA (site not stated)): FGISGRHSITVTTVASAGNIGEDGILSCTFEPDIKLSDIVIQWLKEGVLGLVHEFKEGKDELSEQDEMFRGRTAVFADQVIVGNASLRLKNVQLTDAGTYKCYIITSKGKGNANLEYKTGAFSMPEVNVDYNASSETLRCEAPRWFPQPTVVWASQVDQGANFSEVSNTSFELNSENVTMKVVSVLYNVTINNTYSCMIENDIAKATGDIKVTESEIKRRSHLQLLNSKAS
Experiment: capture ELISA, immobilized scFv, biotinylated rB7-H4, SA-HRP

B1: anti-B7H4 scFv clone 3#68 (scFv)
scFv: QPGLTQPPSASGTPGQRVTISCSGSSSNIGSNYVYWYQQFPGTAPKLLIYRNNQRPSGVPDRFSGSKSGTSASLAISGLRSEDEADYYCAAWDDSLSVWVFGGGTKVTVLGGSSRSSSSGGSGSGGGGQVTLKESGAEVKNPGSSVKVSCKASGGTFSSYAISWLRQAPGQGLEWMGWINPNSGGSDYAQRFQGRVTMTRDTSINTVYMELSRLRSDDTAVYYCARVEKRGYYYGMDVWGQGTMVTVSSFEGSEQ
binding: binds

Source: patent US20140294861A1 (University of Pennsylvania, published 2014)
